Results on one sequence are retold here after ChEMBL document CHEMBL3045324, “5-phenyl-1-benzofuran-2-yl derivatives: synthesis, antimicrobial, and antioxidant activity” (2013).

The subject of the test is Candida albicans. In words: Antifungal activity against Candida albicans NCPF 3179 assessed as growth inhibition at 50 mg/mL after 3 days. The test is classed as functional.

As to NYSTATIN, the inhibition zone (IZ) came out at 6 mm.
